Laboratory results taken from PubChem BioAssay AID2685 (National Center for Advancing Translational Sciences (NCATS), 2010).
The list shows a part of the results. These are further read-outs of the screen, such as a control signal, another cell line or another target. No call is given for them. The list favours compounds with an active or inconclusive main result. Potencies come from curve fits of mixed quality, noted in brackets.

Test: qHTS Assay for Lipid Storage Modulators in Drosophila S3 Cells;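 for cell number change: cells counted by Cell Tracker Red CMTPX staining in the red channel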
Conditions: BODIPY lipid droplet fluorescence, 18-24 h; for cell number change: measured here: cell count max response, cells fed with added oleic acid
Outline: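 Drosophila S3 cells loaded with oleic acid (400 uM, as added) and compounds at several concentrations; lipid droplets imaged by 488-nm laser-scanning cytometry, 500–530 nm intensity and object ratio to cell channel. Percent activity normalized to 20 uM Triacsin C.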

[1] = measured here: lipid fluorescence (Fed channel) AC50, cells fed with added oleic acid
[2] = measured here: cell number channel AC50, cells fed with added oleic acid

SMILES | cell number change [%] | AC50 [1] | AC50 [2]
CCCCN(c1ccccc1)S(=O)(=O)N(C)C | -15.7 | 461 nM [falling, partial curve, poor fit] | 
COc1cccc(C(=O)Nc2ccccc2NC(=O)c2cccc(OC)c2)c1 | -12.3 |  | 
O=C(OCC(=O)N1CCCCCC1)c1cccc(Cl)c1 | 20.9 | 29100 nM [rising, single point] | 
COc1c2occc2c(OC(C)=O)c2c(=O)cc(C)oc12 | 25 |  | 
CCOc1cc(N2CCOCC2)c(OCC)cc1NC(=O)CC12CC3CC(CC(C3)C1)C2 | -1.14 | 6510 nM [rising, single point] | 
O=C(CSc1ccc([N+](=O)[O-])cn1)Nc1nccs1 |  | 16400 nM [falling, partial curve] | 
Cc1cc(N2C(=O)C=CC2=O)c([N+](=O)[O-])cc1C | -82.6 | 23100 nM [falling, partial curve] | 23100 nM [falling, partial curve, poor fit]
CN(C)C(=O)C(Sc1ccc(S(=O)(=O)N2CCCC2)cn1)c1ccccc1 (configuration not stated) |  | 2310 nM [falling, full curve] | 
Cn1c(=O)n(C)c2cc(NC(=O)CSc3ccccc3)ccc21 | -19.9 | 32600 nM [falling, single point] | 
CNC(=O)COc1coc(CN2CCN(C(=O)c3ccco3)CC2)cc1=O | -0.396 | 5.17 nM [falling, full curve, poor fit] | 5.8 nM [falling, full curve, poor fit]
CCCC1CCc2c(c3ccccc3[nH]c2=O)O1 (configuration not stated) | 37.1 |  | 1460 nM [rising, partial curve, poor fit]
CCOc1ccccc1N(C(=O)c1ccco1)C(C(=O)NC1CCCC1)c1cccnc1 (configuration not stated) | 144 | 2060 nM [rising, partial curve] | 8200 nM [rising, partial curve]
Cc1ccc(N2CC(C(=O)NC3CCSC3=O)CC2=O)cc1 (configuration not stated) | 9.63 | 29100 nM [falling, single point] | 
CC1C=CCC2C(=O)N(c3cccc(C(=O)Nc4ccc(Br)cc4)c3)C(=O)C12 (configuration not stated) | -27.7 | 29100 nM [falling, single point] | 
CCOc1cc(C)c(-c2onc(C(F)(F)F)c2-c2csc(C)n2)c(O)c1 | -58.8 | 8200 nM [falling, partial curve] | 10300 nM [falling, partial curve]
Cc1ccc(NNC2CC(=O)N(c3cccc(Cl)c3)C2=O)cc1 (configuration not stated) |  | 164 nM [falling, full curve, poor fit] | 
COc1ccc(C(=O)NCCS(=O)(=O)NCCc2ccccc2)cc1 | -19.5 |  | 6.51 nM [falling, full curve, poor fit]
COc1cc(CNCc2ccc(C)cc2)cc(OC)c1OC | 9.84 | 326 nM [rising, full curve, poor fit] | 
CN(Cc1ccccc1)C(=O)CNC(=O)C12CC3CC(CC(C3)C1)C2 | -33.7 | 651 nM [falling, full curve, poor fit] | 146 nM [falling, full curve]
CCCNC(=O)c1ccc(N2CCC3(CC2)CC(c2cccc(Br)c2)=NO3)c(NC(=O)c2ccccc2)c1 | 9.77 |  | 103 nM [falling, full curve, poor fit]

Complete entries from above.
`O=C(CSc1ccc([N+](=O)[O-])cn1)Nc1nccs1` is listed with AC50 [1]: 16400 nM [falling, partial curve]
`CN(Cc1ccccc1)C(=O)CNC(=O)C12CC3CC(CC(C3)C1)C2` is listed with cell number change [%]: -33.7; AC50 [1]: 651 nM [falling, full curve, poor fit]; AC50 [2]: 146 nM [falling, full curve]
`CCCCN(c1ccccc1)S(=O)(=O)N(C)C` is listed with cell number change [%]: -15.7; AC50 [1]: 461 nM [falling, partial curve, poor fit]
`CC1C=CCC2C(=O)N(c3cccc(C(=O)Nc4ccc(Br)cc4)c3)C(=O)C12` (configuration not stated) is listed with cell number change [%]: -27.7; AC50 [1]: 29100 nM [falling, single point]

Additional structures

SMILES | cell number change [%] | AC50 [1] | AC50 [2]
CN(C)CCN(C(=O)CCS(=O)(=O)c1ccccc1)c1nc2c(F)cccc2s1 | 31.6 | 7310 nM [rising, partial curve] | 7310 nM [rising, partial curve, poor fit]
CCCN1CCN(C(=O)C2CCN(S(=O)(=O)c3ccc4c(c3)oc(=O)n4C)CC2)CC1 |  | 6510 nM [rising, single point] | 
O=C(CCN1C(=O)c2ccncc2C1=O)Nc1ccc(F)cc1 | -45.2 | 18400 nM [falling, partial curve, poor fit] | 9.2 nM [falling, full curve]
OC(C#CCN1CCCCCC1)(c1ccccc1)c1cccnc1 (configuration not stated) | 25.4 | 820 nM [rising, full curve, poor fit] | 
Cc1ccc(NC(=O)CN2C(=O)NC3(CCc4ccccc43)C2=O)cc1 (configuration not stated) |  | 580 nM [rising, single point] | 5800 nM [rising, single point]
CCCOc1ccc(N/C=C/C(=O)c2ccc(OC)c(OC)c2)cc1 | -10.9 | 517 nM [rising, partial curve, poor fit] | 
Oc1ccc(-c2nc3ccccn3c2NCc2ccc3c(c2)OCO3)cc1 | -26 | 920 nM [rising, full curve] | 
O=C1CC(c2ccccc2F)c2c(c3ccccc3[nH]c2=O)O1 (configuration not stated) | -23.9 | 29100 nM [falling, single point] | 
COc1ccc(NC(C)=O)cc1NC(C)c1nc2sc(C)c(C)c2c(=O)[nH]1 (configuration not stated) | -42.3 | 1840 nM [falling, partial curve] | 8200 nM [falling, single point]
CC(C)(C)c1ccc(S(=O)(=O)NCC(=O)N2CCN(Cc3ccccc3)CC2)cc1 | -37.6 |  | 14600 nM [falling, single point]
CNS(=O)(=O)c1ccc(NC(=O)c2csc(C)c2)cc1 | -18.9 |  | 
COc1cc(NC(=S)NCCc2ccccc2)c(OC)cc1NC(=O)C(C)C | 15.7 | 259 nM [rising, full curve, poor fit] | 
S=C(NC1CC2CCC1C2)N1CCN(c2cccc(Cl)c2)CC1 (configuration not stated) | 9.02 |  | 
CCOc1ccc(N2C(=O)Nc3ccccc3C2(O)C(=O)NCc2ccc(F)cc2)cc1 (configuration not stated) | -10.5 |  | 
Cc1ccc(OC(C)C(=O)Nc2cc(C)on2)cc1 (configuration not stated) | 26.5 | 4610 nM [falling, single point] | 
Cc1cc(OCCCC(=O)Nc2nnc(C3CC3)s2)ccc1Cl | -30.6 | 146 nM [rising, full curve, poor fit] | 16400 nM [falling, single point]
COc1ccc(N(CC(=O)N2CCCCCC2)S(=O)(=O)c2c(C)[nH]c(=O)[nH]c2=O)cc1 | -22.9 | 11600 nM [falling, partial curve] | 231 nM [falling, full curve, poor fit]
O=C(Cc1ccc(S(=O)(=O)N2CCCCC2)s1)Nc1ccc(F)c(F)c1 |  | 25900 nM [falling, partial curve] | 116 nM [falling, full curve, poor fit]
Cc1ccc(/C=C/C(=O)OCC(=O)NC(C)c2ccccc2)o1 (configuration not stated) | -33.5 |  | 259 nM [falling, full curve, poor fit]
CC(=O)Nc1ccc(NC(=O)CSc2ncc(C(=O)Nc3ccc(F)cc3)c(=O)n2C)cc1 | 51 |  | 2910 nM [rising, full curve]

SMILES | cell number change [%] | AC50 [1] | AC50 [2]
COc1ccc(Br)cc1CNC(=O)C1CCCN(c2nc3ccccc3o2)C1 (configuration not stated) | -7.55 |  | 
COc1ccccc1N1CCN(C(=O)CCNC(=O)Cn2ccc3ccccc3c2=O)CC1 | -8.57 |  | 
COc1cccc(/C=N/NC(=O)C(=O)N2CCCC2)c1O |  | 580 nM [rising, partial curve, poor fit] | 651 nM [rising, partial curve, poor fit]
CCOC(=O)C1=C(CC)Nc2ccccc2N/C1=N\S(=O)(=O)c1ccccc1OC | 22.7 | 411 nM [rising, full curve, poor fit] | 
CCC(C)(c1ccc(C(=O)OC)s1)c1ccc(C(=O)OC)s1 |  | 29100 nM [falling, single point] | 
COc1cccc(C(=O)Nc2ccc(NC(C)=O)cc2)c1 | 9.04 |  | 
CSCC[C@H](NC(=O)c1ccc2ccccc2c1)C(=O)N1CCC2(CC1)NCCc1[nH]cnc12 |  | 146 nM [rising, full curve] | 
COc1ccc(C2CC2C(=O)c2ccccn2)cc1 (configuration not stated) | 46.2 | 29100 nM [rising, single point] | 29100 nM [rising, single point]
CC1(CCc2ccccc2)NC(=O)N(CC(=O)Nc2ccc3c(c2)OCCO3)C1=O (configuration not stated) | 23.9 | 4.61 nM [falling, full curve, poor fit] | 
Cc1ccc(NC(=O)C(C)OC(=O)Cc2c[nH]c3ccccc23)cc1S(=O)(=O)N1CCOCC1 (configuration not stated) |  |  | 2910 nM [rising, single point]
O=[N+]([O-])c1ccccc1S(=O)(=O)Oc1ccc(/C=N/n2cnnc2)cc1 | -7.98 |  | 
C[C@@H]1CC=C[C@H]2[C@H]1C(=O)N(Cc1ccccc1)[C@H]2c1ccc2ccccc2c1 | -52.5 | 3660 nM [falling, single point] | 20600 nM [falling, single point]
CCN(CC)C1CCN(C(=O)c2cc(COc3ccc(-n4cncn4)cc3)on2)C1 (configuration not stated) | 31.5 |  | 8200 nM [rising, partial curve]
O=C(Nc1ccc(S(=O)(=O)N2CCCC2)cc1Cl)C1=COCCO1 | 20 | 231 nM [rising, full curve] | 
O=C(N[C@H](Cc1cc(=O)[nH]c2ccccc12)C(=O)O)c1ccc(Cl)cc1 | 24.4 |  | 
O=C(C1=C(O)C(=O)N(Cc2ccco2)C1c1cccnc1)c1cc2ccccc2o1 (configuration not stated) | -15.3 | 5.8 nM [rising, full curve] | 
O=C(Nc1ccccc1O)c1ccccc1O | -18.6 | 731 nM [rising, full curve, poor fit] | 
CCC(C)NC(=O)c1ccccc1C(=O)NC(C)CC (configuration not stated) | -36.9 | 29100 nM [falling, single point] | 20600 nM [falling, partial curve, poor fit]
